Results published in article PMC2686717.
No constants are given. Whether binding was seen depends on the method and setting. In cells and extracts the contact can be indirect. Where a sequence is shown, tags or fusion partners need not be part of it.

Sequences of proteins named here, by UniProt entry; tags and fusion partners are left off.
UniProt P28159: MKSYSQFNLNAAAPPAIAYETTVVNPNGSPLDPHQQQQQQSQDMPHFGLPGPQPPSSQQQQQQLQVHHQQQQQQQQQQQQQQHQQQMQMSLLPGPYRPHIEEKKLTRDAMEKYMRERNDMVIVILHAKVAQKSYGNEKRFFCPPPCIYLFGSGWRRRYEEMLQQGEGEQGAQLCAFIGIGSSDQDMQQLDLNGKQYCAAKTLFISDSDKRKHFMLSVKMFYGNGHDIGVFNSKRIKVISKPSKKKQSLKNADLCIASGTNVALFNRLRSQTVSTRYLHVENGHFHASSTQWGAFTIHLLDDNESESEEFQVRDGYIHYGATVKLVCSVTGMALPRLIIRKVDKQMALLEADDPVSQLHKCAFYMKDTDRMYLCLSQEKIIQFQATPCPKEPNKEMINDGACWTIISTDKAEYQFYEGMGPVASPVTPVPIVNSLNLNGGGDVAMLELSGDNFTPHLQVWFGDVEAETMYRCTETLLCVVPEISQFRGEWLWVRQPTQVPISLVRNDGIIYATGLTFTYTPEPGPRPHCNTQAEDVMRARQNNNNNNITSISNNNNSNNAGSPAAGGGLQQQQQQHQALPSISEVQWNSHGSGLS

Molecular target: 6x-His tagged Suppressor of Hairless (Su(H)) protein (Drosophila) (UniProt P28159)
Test: pull-down; 6xHis-Su(H) bound to Ni-resin spin columns; bacterial lysates with 6xMyc-tagged proteins passed through; 50 mM sodium phosphate pH 8.0, 150 mM NaCl, 20 mM imidazole; eluted with 50 mM Tris pH 8.0, 10 mM EDTA; Western blot with anti-6xHis or anti-myc; 'partially purified recombinant bacterial proteins'; only the target purified

B1: 6x-Myc tagged Achaete (Ac) (protein, UniProt P10083 1-201)
chain: MALGSENHSVFNDDEESSSAFNGPSVIRRNARERNRVKQVNNGFSQLRQHIPAAVIADLSNGRRGIGPGANKKLSKVSTLKMAVEYIRRLQKVLHENDQQKQKQLHLQQQHLHFQQQQQHQHLYAWHQELQLQSPTGSTSSCNSISSYCKPATSTIPGATPPNNFHTKLEASFEDYRNNSCSSGTEDEDILDYISLWQDDL
  binding: no binding
